The text below walks through data of EP4644426A1 (Gan & Lee Pharmaceuticals Co., Ltd., dated 2025).

Amino acid sequences for entries named in this document (tags omitted). Residues count along the entry.
UniProt P03951, residues 19-625: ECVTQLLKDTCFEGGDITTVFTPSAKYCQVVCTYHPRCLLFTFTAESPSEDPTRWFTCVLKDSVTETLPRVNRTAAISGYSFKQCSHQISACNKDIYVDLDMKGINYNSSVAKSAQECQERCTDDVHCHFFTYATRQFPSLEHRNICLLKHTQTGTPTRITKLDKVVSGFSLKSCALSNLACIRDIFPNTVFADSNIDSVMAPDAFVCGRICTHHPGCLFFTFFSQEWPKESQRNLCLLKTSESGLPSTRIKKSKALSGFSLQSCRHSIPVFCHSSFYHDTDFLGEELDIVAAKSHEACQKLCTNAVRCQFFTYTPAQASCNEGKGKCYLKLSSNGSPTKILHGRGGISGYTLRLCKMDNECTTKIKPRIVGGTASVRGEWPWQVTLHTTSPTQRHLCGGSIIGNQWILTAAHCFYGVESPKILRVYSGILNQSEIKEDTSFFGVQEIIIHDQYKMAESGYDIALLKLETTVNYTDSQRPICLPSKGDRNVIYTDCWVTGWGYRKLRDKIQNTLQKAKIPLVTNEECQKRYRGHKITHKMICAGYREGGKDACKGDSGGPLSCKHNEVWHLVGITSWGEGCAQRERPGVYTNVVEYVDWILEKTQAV

The target of this experiment is human FXIa factor (human, UniProt P03951 19-625). The experiment can be described thus: Biacore 8K (SPR).

These are yes or no findings as the source states them, for the method shown. Some entries that bind do so weakly or less than the wild type.

B1: humanized antibody 29E10C4-1 (antibody, human IgG1, kappa, V domains shown)
VH: QVQLVQSGAEVKKPGSSVKVSCKASGGTFSDYFIEWVRQAPGQGLEWMGVINPGNDVTNYNEKFKGRVTITADKSTSTAYMELSSLRSEDTAVYYCARSAGNYENSMDFWGQGTTVTVSS
VL: EIVLTQSPATLSLSPGERATLSCKASQSVSNDVGWYQQKPGQAPRLLIYYTSNRYTGIPARFSGSGSGTDFTLTISSLEPEDFAVYYCQQDYHFPLTFGGGTKVEIKR
notes: 29E10C4-1 is the only humanized form of that clone
Turning to B1, the binding entry is “binds”.
